According to the supplement of paper PMC7646827:
Repeats are few or missing, and single values can be far off.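 All cells are established human bladder cancer lines, one derived from a patient-derived xenograft. A luminescent ATP assay measured viability as percent inhibition relative to vehicle across seven dilutions. The paper rates scores above 59 very active, 30–59 active, 21–29 semi-active, 9–20 low active, below 9 inactive.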

What was measured:
Test in all cases: drug sensitivity score DSS3 (score 0-100); higher = more sensitive; extreme values may be limits of the assay
Details in all cases: culture: 3D, ultra-low attachment; treatment time: 5 days
[1] = tested on: UM-UC-15
[2] = tested on: J82
[3] = tested on: UM-UC-1
[4] = tested on: UM-UC-3
[5] = tested on: UM-UC-17
[6] = tested on: SW780
[7] = tested on: UM-UC-6
[8] = tested on: UM-UC-14
[9] = tested on: UM-UC-12
[10] = tested on: BC8149
[11] = tested on: UM-UC-18
[12] = tested on: UM-UC-5
[13] = tested on: TCCSUP
[14] = tested on: UM-UC-9
[15] = tested on: T-24
[16] = tested on: SCaBER
[17] = tested on: 5637

Row | SMILES | drug sensitivity score DSS3 [1] | drug sensitivity score DSS3 [2] | drug sensitivity score DSS3 [3] | drug sensitivity score DSS3 [4] | drug sensitivity score DSS3 [5] | drug sensitivity score DSS3 [6] | drug sensitivity score DSS3 [7] | drug sensitivity score DSS3 [8] | drug sensitivity score DSS3 [9] | drug sensitivity score DSS3 [10] | drug sensitivity score DSS3 [11] | drug sensitivity score DSS3 [12] | drug sensitivity score DSS3 [13] | drug sensitivity score DSS3 [14] | drug sensitivity score DSS3 [15] | drug sensitivity score DSS3 [16] | drug sensitivity score DSS3 [17]
1 | CCC(CC)CC1(C(=O)Nc2ccccc2SC(=O)C(C)C)CCCCC1 (max dose 10000 nM) | 0 | 0 | 0 | 2.72 | 2.27 | 0 | 0 | 0.238 | 0 | 0 | 0 | 0 | 1.69 | 0 | 0 | 0 | –
2 | CCn1c(-c2nonc2N)nc2c(C#CC(C)(C)O)ncc(OC[C@H]3CCCNC3)c21 (max dose 10000 nM) | 0 | 0 | 15.6 | 7.33 | 0 | 0 | 0 | – | 0.389 | 33.9 | 0 | 6.51 | 16.5 | 8.45 | 1.44 | 38.9 | 44.1
3 | Cc1ccc(C(=O)N(CCCN)[C@@H](c2oc3cc(Cl)ccc3c(=O)c2Cc2ccccc2)C(C)C)cc1 (max dose 10000 nM) | 0.408 | 0 | 45.4 | 30.8 | 59.9 | – | 33.2 | 59.5 | 34.6 | 0 | 30.1 | 1.25 | 59.1 | 11.2 | 0 | 0 | 52.5
4 | Cc1ccc(C(=O)Nc2ccc(CN3CCN(C)CC3)c(C(F)(F)F)c2)cc1C#Cc1cnc2cccnn12 (max dose 10000 nM) | 0 | 6.34 | 3.27 | 0 | 0 | 0 | 2.51 | 6.19 | 10.3 | 5.08 | – | 0 | 23.2 | 3.78 | 17.7 | 6.34 | 8.34
5 | Nc1nccc(Oc2ccc(NC(=O)c3c[nH]cc(-c4ccc(F)cc4)c3=O)cc2F)c1Cl (max dose 10000 nM) | 24.4 | 0 | 0 | 2.67 | 1.36 | 0 | 0.916 | – | 0 | 1.53 | 1.31 | 0 | 4.48 | 0 | 0.854 | 0 | 0
6 | COc1cc(N2CCC(N(C)C)CC2)ccc1Nc1ncc(Cl)c(Nc2ccccc2P(C)(C)=O)n1 [ALK-IN-1] (max dose 10000 nM) | 0 | 3.32 | 5.45 | 2.91 | 0.13 | 16 | 7.39 | 5.43 | 1.99 | 0.188 | 0.195 | – | 15.5 | 0 | 33.1 | 7.9 | 3.38
7 | C=CC(=O)Nc1ccc2ncnc(Nc3ccc(OCc4cccc(F)c4)c(Cl)c3)c2c1 [AST-1306] (max dose 10000 nM) | 0 | 0 | 0 | 0 | – | – | 2.92 | – | 20.8 | 25.3 | 27.8 | 0.198 | 19.5 | – | 23.2 | 27.1 | 23.7
8 | CC(C)n1c(=O)n(C)c2cnc3cc(F)c(-c4ccc(OCCCN5CCCCC5)nc4)cc3c21 [AZD1390] (max dose 10000 nM) | 0 | 0 | 0 | 0 | 0 | – | 0 | 3.35 | 0 | 0 | 0 | 0 | 0 | 0 | 0 | 0 | 0
9 | Nc1ncnc2c1c(-c1ccc(Cl)cc1)nn2-c1cccc(-c2cnnn2Cc2cccc(-c3ccccc3)c2)c1 [KB SRC 4] (max dose 10000 nM) | 0.895 | 7.94 | 22.9 | 8.43 | 34.3 | – | 6.66 | 19.7 | 0 | 14.3 | 34.4 | 0.0134 | 45 | 0 | 0 | 21.3 | 51
10 | O=C(Cc1ccc(-c2ccc(OCCN3CCOCC3)cc2)cn1)NCc1ccccc1 [KX2-391] (max dose 10000 nM) | 0 | 0.517 | 41.8 | 20.6 | 63.8 | 23.5 | 48.1 | 63.1 | 27.4 | 28.3 | 0 | 13.8 | 68.6 | – | 2.41 | 18.7 | 64.7
11 | Nc1cccc2c1CN(C1CCC(=O)NC1=O)C2=O (stereo not drawn) [Lenalidomide, Lenalidomide (CC-5013)] (max dose 10000 nM) | 0 | 0.87 | 3.1 | 1.15 | 0 | 0.0239 | 5.75 | 9.77 | 4.36 | 0.684 | 4.07 | – | 14.9 | 0.813 | 2.53 | 2.78 | 5.68

Shown tab-delimited: 2 of the compounds above.
Row	SMILES	drug sensitivity score DSS3 [1]	drug sensitivity score DSS3 [2]	drug sensitivity score DSS3 [3]	drug sensitivity score DSS3 [4]	drug sensitivity score DSS3 [5]	drug sensitivity score DSS3 [6]	drug sensitivity score DSS3 [7]	drug sensitivity score DSS3 [8]	drug sensitivity score DSS3 [9]	drug sensitivity score DSS3 [10]	drug sensitivity score DSS3 [11]	drug sensitivity score DSS3 [12]	drug sensitivity score DSS3 [13]	drug sensitivity score DSS3 [14]	drug sensitivity score DSS3 [15]	drug sensitivity score DSS3 [16]	drug sensitivity score DSS3 [17]
1	CCC(CC)CC1(C(=O)Nc2ccccc2SC(=O)C(C)C)CCCCC1 (max dose 10000 nM)	0	0	0	2.72	2.27	0	0	0.238	0	0	0	0	1.69	0	0	0	–
2	CCn1c(-c2nonc2N)nc2c(C#CC(C)(C)O)ncc(OC[C@H]3CCCNC3)c21 (max dose 10000 nM)	0	0	15.6	7.33	0	0	0	–	0.389	33.9	0	6.51	16.5	8.45	1.44	38.9	44.1
